PubChem BioAssay AID743454 | Peter MacCallum Cancer Centre, 2014

- Aim: 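Genes whose loss kills vorinostat-resistant colon cancer cells under vorinostat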 (primary screen)
- System: human HCT116-VR colon cancer cells, selected for vorinostat resistance
- Reagent: siRNA pool against human genes, 40 nM siRNA pool
- Duration: vorinostat for 24 h, read-out about 72 h after transfection
- Treatment: vorinostat at 2.5 µM final
- Detection: 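Cell viability by CellTiter-Fluor and caspase 3/7 activity by luminescence, each scaled to mock wells per plate, duplicates averaged, then robust z-scored over all plates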
- Scale: viability robust z-score: higher = more viable cells than screen typical; caspase robust z-score: higher = more caspase 3/7 activity than screen typical
- Hit rule: 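Hits are knock-downs in viability class RV1/RV2 or caspase class CA1/CA2, excluding ones that killed cells in the no-drug cell-count arm; hits then retested with single siRNAs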
Here is one part, drawn at random, of about 18,000 deposited reagents. Over the whole deposit, 450 (2.5%) got an active call. 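Single biological run; no consistent viability z cut-off exists, so the class columns, not z-scores, define the calls.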

Target gene | viability hit class | caspase hit class | viability robust z-score | caspase robust z-score | activity call
FAM117B | no change | no change | -0.41 | -0.88 | inactive
GSDMA | no change | no change | -0.28 | 1.48 | inactive
CCR3 | no change | no change | 0.26 | 0.48 | inactive
CSNK1G3 | no change | no change | -0.14 | 0.54 | inactive
ALG10B | no change | no change | 0.5 | 0.3 | inactive
FAM20C | no change | no change | 1.12 | -0.74 | inactive
FDXR | no change | no change | 1.14 | -0.23 | inactive
GTF2H2 | no change | no change | -0.47 | -0.86 | inactive
TEAD3 | no change | no change | -0.44 | -0.36 | inactive
UMODL1 | no change | no change | 0.42 | -0.64 | inactive
HMBS | no change | no change | -0.94 | 0.91 | inactive
CEP76 | no change | no change | -0.55 | 1.15 | inactive
ARHGEF37 | no change | no change | 0.8 | 0.36 | inactive
LPAR1 | no change | no change | -0.39 | 1.86 | inactive
TBC1D16 | no change | no change | 0.64 | 0.62 | inactive
PLCZ1 | no change | no change | -0.13 | 0.8 | inactive
SLC22A12 | no change | no change | -0.11 | -0.65 | inactive
UNC50 | no change | no change | 0.58 | -1.08 | inactive
SLC31A2 | no change | no change | -1.23 | 1.08 | inactive
SLC26A5 | no change | no change | -0.75 | -0.3 | inactive
DPYSL3 | no change | no change | 1.84 | -0.1 | inactive
OR2B2 | no change | no change | 0.78 | -0.1 | inactive
REEP6 | no change | no change | 0.03 | 1.34 | inactive
IGFBP2 | no change | no change | 1.19 | 1.81 | inactive
CPLX4 | no change | no change | 0.27 | -0.36 | inactive
ACTN2 | no change | no change | 0.58 | -0.62 | inactive
TMEM59L | no change | no change | -0.12 | 1.23 | inactive
TDRD6 | no change | no change | 1.69 | 0.06 | inactive
RDX | no change | no change | -0.6 | -1.32 | inactive
ARLN | RV2 (reduced viability) | no change | -3.08 | 0.22 | active
NXT1 | no change | no change | -1.72 | 2.25 | inactive
CCNO | no change | no change | 1.28 | 0.04 | inactive
RBMY1A1 | no change | no change | 0.88 | -0.66 | inactive
SLC20A1 | no change | no change | 0.6 | -0.26 | inactive
HMGN4 | no change | no change | -2.7 | 0.78 | inactive
EYA4 | no change | no change | -0.6 | 0.9 | inactive
RNF10 | no change | no change | 0.3 | -0.52 | inactive
PIF1 | no change | no change | 0.06 | 0.76 | inactive
ELOVL1 | no change | no change | -0.96 | 2.56 | inactive
